PubChem BioAssay AID1259405 – NCATS – 2018

- Purpose: 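Knock-downs that lift recombinant protein yield in hamster ovary cells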 (primary screen)
- System: Chinese hamster CHO-K1 ovary cells with stable secreted eGFP expression
- Reagent: single siRNA against mouse genes, 0.8 pmol siRNA per well (2 µl of 400 nM stock)
- Duration: 3 days
- Measurement: 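Percent of the per-plate non-targeting control median for intracellular GFP per well by laser scanning cytometry and for cell viability by ATP luminescence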
- Reading the numbers: GFP, % of control: higher = more GFP per well, higher productivity; viability (ATP), % of control: higher = more viable cells (more ATP)
- Hit rule: 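Called active when intracellular GFP, relative to negative control, is at or above 120%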
Shown is one part, drawn at random, of about 50,000 deposited reagents. In the full data, about 4,000 (8%) got an active call. 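Mouse siRNA library applied to hamster cells; one well for each siRNA.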 The numbers tell different reagents against one gene apart.

Which result is listed for Rgs16 #1?
GFP, % of control: 85.6; viability (ATP), % of control: 90; call: inactive

What is on record for Rgs16 #2?
GFP, % of control: 58.9; viability (ATP), % of control: 53.7; call: inactive

With Rgs16 #3, what does the deposit list?
GFP, % of control: 76.5; viability (ATP), % of control: 48.8; call: inactive

How did the screen score Cnnm3 #1?
GFP, % of control: 75.6; viability (ATP), % of control: 106; call: inactive

What is on record for Cnnm3 #2?
GFP, % of control: 105; viability (ATP), % of control: 85.1; call: inactive

With Cnnm3 #3, what was measured?
GFP, % of control: 44.8; viability (ATP), % of control: 96.4; call: inactive

What did the screen give for Saa1 #1?
GFP, % of control: 68.1; viability (ATP), % of control: 46.7; call: inactive

For Saa1 #2, what was measured?
GFP, % of control: 84.5; viability (ATP), % of control: 84.5; call: inactive

With Saa1 #3, how do the results read?
GFP, % of control: 118; viability (ATP), % of control: 89.2; call: inactive

What is on record for Sp6 #1?
GFP, % of control: 82.9; viability (ATP), % of control: 75.4; call: inactive

What is on record for Sp6 #2?
GFP, % of control: 67.8; viability (ATP), % of control: 111; call: inactive

With Sp6 #3, what does the deposit list?
GFP, % of control: 96.4; viability (ATP), % of control: 116; call: inactive

For Uchl4 #1, how do the results read?
GFP, % of control: 144; viability (ATP), % of control: 90.1; call: active

For Uchl4 #2, what does the deposit list?
GFP, % of control: 89.9; viability (ATP), % of control: 79; call: inactive

For Uchl4 #3, what does the deposit list?
GFP, % of control: 74.8; viability (ATP), % of control: 90; call: inactive

Which result is listed for Tln1 #1?
GFP, % of control: 74.2; viability (ATP), % of control: 90.6; call: inactive

How did the screen score Tln1 #2?
GFP, % of control: 85.1; viability (ATP), % of control: 88.9; call: inactive

Reagents above marked active, once more:
Uchl4 #1 — GFP, % of control: 144; viability (ATP), % of control: 90.1; call: active

Continued.
For Pgam2 #1, what does the deposit list?
GFP, % of control: 57.9; viability (ATP), % of control: 39.1; call: inactive

With Pgam2 #2, what was measured?
GFP, % of control: 67; viability (ATP), % of control: 89; call: inactive

Which result is listed for Pgam2 #3?
GFP, % of control: 50.1; viability (ATP), % of control: 38.5; call: inactive

How did the screen score Rab29 #1?
GFP, % of control: 59.6; viability (ATP), % of control: 60.2; call: inactive

Which result is listed for Rab29 #2?
GFP, % of control: 103; viability (ATP), % of control: 69.7; call: inactive

For Rab29 #3, how do the results read?
GFP, % of control: 78.1; viability (ATP), % of control: 78.3; call: inactive

For Mcm6 #1, how do the results read?
GFP, % of control: 123; viability (ATP), % of control: 116; call: active

What is on record for Mcm6 #2?
GFP, % of control: 98.2; viability (ATP), % of control: 79.6; call: inactive

Which result is listed for Mcm6 #3?
GFP, % of control: 66.4; viability (ATP), % of control: 83.4; call: inactive

With 1700092C17Rik #1, how do the results read?
GFP, % of control: 104; viability (ATP), % of control: 115; call: inactive

With 1700092C17Rik #2, what does the deposit list?
GFP, % of control: 49.2; viability (ATP), % of control: 50.5; call: inactive

With 1700092C17Rik #3, what was measured?
GFP, % of control: 72.2; viability (ATP), % of control: 69.8; call: inactive
